Experimental data reported in PMC8050258.
Where two headings read alike, the source gives them in different places. These are yes or no findings as the source states them, for the method shown. In cells and extracts the contact can be indirect. Some results given as binding are weak or reduced against the parent protein; the word gives no strength. For some assays here: Tags and fused reporters may be left off the sequences shown.

Protein sequences, listed by entry. Tags and fused reporters are not part of them.
UniProt Q04207: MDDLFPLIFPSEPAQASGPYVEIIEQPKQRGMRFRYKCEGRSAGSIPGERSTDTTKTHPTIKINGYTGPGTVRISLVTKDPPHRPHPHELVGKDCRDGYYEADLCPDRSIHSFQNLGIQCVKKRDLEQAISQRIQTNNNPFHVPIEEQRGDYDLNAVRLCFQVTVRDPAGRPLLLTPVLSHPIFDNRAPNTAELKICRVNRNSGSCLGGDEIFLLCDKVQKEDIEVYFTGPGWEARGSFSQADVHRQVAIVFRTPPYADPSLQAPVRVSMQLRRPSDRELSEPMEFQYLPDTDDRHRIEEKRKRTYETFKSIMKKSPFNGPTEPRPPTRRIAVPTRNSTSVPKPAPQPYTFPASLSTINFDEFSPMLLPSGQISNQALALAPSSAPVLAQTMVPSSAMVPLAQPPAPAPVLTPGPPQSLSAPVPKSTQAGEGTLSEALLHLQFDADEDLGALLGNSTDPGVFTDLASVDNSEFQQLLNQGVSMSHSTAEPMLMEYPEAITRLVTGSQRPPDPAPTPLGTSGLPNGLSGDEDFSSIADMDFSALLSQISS
UniProt Q04206: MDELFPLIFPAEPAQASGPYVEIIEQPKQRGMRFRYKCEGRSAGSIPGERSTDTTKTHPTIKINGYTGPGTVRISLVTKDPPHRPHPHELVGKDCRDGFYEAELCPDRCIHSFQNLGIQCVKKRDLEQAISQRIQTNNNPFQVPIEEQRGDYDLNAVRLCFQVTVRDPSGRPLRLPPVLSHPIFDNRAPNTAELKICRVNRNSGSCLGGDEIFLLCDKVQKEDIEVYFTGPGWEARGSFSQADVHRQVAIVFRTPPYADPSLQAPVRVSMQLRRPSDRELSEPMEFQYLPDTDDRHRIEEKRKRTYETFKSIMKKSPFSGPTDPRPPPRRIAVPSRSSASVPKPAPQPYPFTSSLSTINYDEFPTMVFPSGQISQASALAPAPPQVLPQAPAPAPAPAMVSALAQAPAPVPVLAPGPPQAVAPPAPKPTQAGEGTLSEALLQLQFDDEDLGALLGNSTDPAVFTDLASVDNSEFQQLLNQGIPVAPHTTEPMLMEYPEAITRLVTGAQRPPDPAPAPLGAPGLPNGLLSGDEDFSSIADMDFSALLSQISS

T1: 14-3-3γ, endogenous in mouse pre-osteoclasts (mouse (endogenous in pre-osteoclasts)) (UniProt P61982)
T1 sequence: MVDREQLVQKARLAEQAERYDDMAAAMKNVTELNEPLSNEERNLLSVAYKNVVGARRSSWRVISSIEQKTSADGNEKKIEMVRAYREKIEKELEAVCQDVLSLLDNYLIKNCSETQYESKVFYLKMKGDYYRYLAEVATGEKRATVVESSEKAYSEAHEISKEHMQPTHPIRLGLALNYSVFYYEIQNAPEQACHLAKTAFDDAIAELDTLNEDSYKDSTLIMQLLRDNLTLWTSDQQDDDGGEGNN

T2: NFATc1, endogenous in mouse pre-osteoclasts (mouse (endogenous in pre-osteoclasts)) (UniProt O88942)
T2 sequence: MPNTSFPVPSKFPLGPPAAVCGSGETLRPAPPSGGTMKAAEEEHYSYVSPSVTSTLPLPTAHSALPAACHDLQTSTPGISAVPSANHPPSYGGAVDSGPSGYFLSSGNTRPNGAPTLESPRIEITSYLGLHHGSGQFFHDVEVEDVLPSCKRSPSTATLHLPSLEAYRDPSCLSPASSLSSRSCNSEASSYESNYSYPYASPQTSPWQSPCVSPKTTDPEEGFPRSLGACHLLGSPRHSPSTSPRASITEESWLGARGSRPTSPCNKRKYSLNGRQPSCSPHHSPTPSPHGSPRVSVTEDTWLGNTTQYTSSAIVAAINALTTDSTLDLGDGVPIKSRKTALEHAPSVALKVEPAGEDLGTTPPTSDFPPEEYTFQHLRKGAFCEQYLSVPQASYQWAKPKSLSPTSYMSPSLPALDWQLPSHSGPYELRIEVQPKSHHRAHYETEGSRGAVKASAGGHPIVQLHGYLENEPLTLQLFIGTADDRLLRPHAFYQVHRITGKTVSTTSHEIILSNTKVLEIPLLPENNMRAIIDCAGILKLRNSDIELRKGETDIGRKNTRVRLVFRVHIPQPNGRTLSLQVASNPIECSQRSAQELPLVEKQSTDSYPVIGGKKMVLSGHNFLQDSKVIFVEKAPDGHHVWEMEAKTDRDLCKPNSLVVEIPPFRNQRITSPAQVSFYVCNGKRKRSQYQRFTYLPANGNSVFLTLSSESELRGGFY

T3: SELENOW (retrovirally overexpressed in pre-osteoclasts) (UniProt P63300)
T3 sequence (chain, selenocysteine at 13 (SeCys encoded by UGA at codon 13)): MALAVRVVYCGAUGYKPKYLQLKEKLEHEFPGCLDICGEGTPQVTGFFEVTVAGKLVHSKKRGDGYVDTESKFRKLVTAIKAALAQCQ

T4: His-tagged SELENOW (SeCys-13) (UniProt P63300)
T4 sequence (chain, selenocysteine at 13 (SeCys-13)): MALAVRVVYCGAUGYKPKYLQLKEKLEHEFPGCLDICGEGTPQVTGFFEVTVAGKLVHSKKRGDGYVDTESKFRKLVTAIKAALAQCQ


Columns and labels:
[1] = target: T1, 14-3-3γ, endogenous in mouse pre-osteoclasts (mouse (endogenous in pre-osteoclasts)); test: co-IP; nuclear extracts of pre-osteoclasts (osteoclast precursors infected with SELENOW-overexpressing retrovirus, M-CSF and RANKL for 2 days) immunoprecipitated with antibodies against NFATc1, p65, 14-3-3γ or SELENOW, immunoblotted
[2] = target: T2, NFATc1, endogenous in mouse pre-osteoclasts (mouse (endogenous in pre-osteoclasts)); test: as above
[3] = target: T3, SELENOW (retrovirally overexpressed in pre-osteoclasts); test: as above
[4] = target: T4, His-tagged SELENOW (SeCys-13); test: co-IP; called His-tag pull-down: extracts of HEK 293T cells expressing His-tagged SELENOW (wild type or SeCys-13 mutants), RIPA buffer, incubated overnight at 4 °C with anti-His-tag antibody, protein G agarose 3 h at 4 °C, washed three times with RIPA buffer, immunoblotted
[5] = target: T2, NFATc1, endogenous in mouse pre-osteoclasts (mouse (endogenous in pre-osteoclasts)); test: co-IP; nuclear extracts of pre-osteoclasts (osteoclast precursors infected with SELENOW-overexpressing retrovirus, M-CSF and RANKL for 2 days) immunoprecipitated with antibodies against NFATc1, p65, 14-3-3γ or SELENOW, immunoblotted; remark: listed apart in the source
[6] = target: T3, SELENOW (retrovirally overexpressed in pre-osteoclasts); test: as above; remark: listed apart in the source
[7] = target: NF-κB (p65), endogenous in mouse pre-osteoclasts (mouse (endogenous in pre-osteoclasts)) (UniProt Q04207); test: as above
[8] = target: T1, 14-3-3γ, endogenous in mouse pre-osteoclasts (mouse (endogenous in pre-osteoclasts)); test: as above; remark: listed apart in the source

Row | Molecule | binding [4] | binding [5] | binding [6] | binding [7] | binding [8] | other results
1 | NF-κB (p65), endogenous in mouse pre-osteoclasts (from UniProt Q04207 1-549) | – | – | – | – | – | binding [1]: no binding; binding [2]: binds; binding [3]: binds
2 | NF-κB (p65), endogenous in HEK 293T (from UniProt Q04206 1-551) | binds | – | – | – | – | –
3 | NFATc1, endogenous in HEK 293T (protein, UniProt O95644 1-943) MPSTSFPVPSKFPLGPAAAVFGRGETLGPAPRAGGTMKSAEEEHYGYASSNVSPALPLPTAHSTLPAPCHNLQTSTPGIIPPADHPSGYGAALDGGPAGYFLSSGHTRPDGAPALESPRIEITSCLGLYHNNNQFFHDVEVEDVLPSSKRSPSTATLSLPSLEAYRDPSCLSPASSLSSRSCNSEASSYESNYSYPYASPQTSPWQSPCVSPKTTDPEEGFPRGLGACTLLGSPRHSPSTSPRASVTEESWLGARSSRPASPCNKRKYSLNGRQPPYSPHHSPTPSPHGSPRVSVTDDSWLGNTTQYTSSAIVAAINALTTDSSLDLGDGVPVKSRKTTLEQPPSVALKVEPVGEDLGSPPPPADFAPEDYSSFQHIRKGGFCDQYLAVPQHPYQWAKPKPLSPTSYMSPTLPALDWQLPSHSGPYELRIEVQPKSHHRAHYETEGSRGAVKASAGGHPIVQLHGYLENEPLMLQLFIGTADDRLLRPHAFYQVHRITGKTVSTTSHEAILSNTKVLEIPLLPENSMRAVIDCAGILKLRNSDIELRKGETDIGRKNTRVRLVFRVHVPQPSGRTLSLQVASNPIECSQRSAQELPLVEKQSTDSYPVVGGKKMVLSGHNFLQDSKVIFVEKAPDGHHVWEMEAKTDRDLCKPNSLVVEIPPFRNQRITSPVHVSFYVCNGKRKRSQYQRFTYLPANVPIIKTEPTDDYEPAPTCGPVSQGLSPLPRPYYSQQLAMPPDPSSCLVAGFPPCPQRSTLMPAAPGVSPKLHDLSPAAYTKGVASPGHCHLGLPQPAGEAPAVQDVPRPVATHPGSPGQPPPALLPQQVSAPPSSSCPPGLEHSLCPSSPSPPLPPATQEPTCLQPCSPACPPATGRPQHLPSTVRRDESPTAGPRLLPEVHEDGSPNLAPIPVTVKREPEELDQLYLDDVNEIIRNDLSSTSTHS | binds | – | – | – | – | –
4 | 14-3-3γ, endogenous in mouse pre-osteoclasts (protein, UniProt P61982 1-247) MVDREQLVQKARLAEQAERYDDMAAAMKNVTELNEPLSNEERNLLSVAYKNVVGARRSSWRVISSIEQKTSADGNEKKIEMVRAYREKIEKELEAVCQDVLSLLDNYLIKNCSETQYESKVFYLKMKGDYYRYLAEVATGEKRATVVESSEKAYSEAHEISKEHMQPTHPIRLGLALNYSVFYYEIQNAPEQACHLAKTAFDDAIAELDTLNEDSYKDSTLIMQLLRDNLTLWTSDQQDDDGGEGNN | – | binds | binds | no binding | – | –
5 | NFATc1, endogenous in mouse pre-osteoclasts (protein, UniProt O88942 1-717) MPNTSFPVPSKFPLGPPAAVCGSGETLRPAPPSGGTMKAAEEEHYSYVSPSVTSTLPLPTAHSALPAACHDLQTSTPGISAVPSANHPPSYGGAVDSGPSGYFLSSGNTRPNGAPTLESPRIEITSYLGLHHGSGQFFHDVEVEDVLPSCKRSPSTATLHLPSLEAYRDPSCLSPASSLSSRSCNSEASSYESNYSYPYASPQTSPWQSPCVSPKTTDPEEGFPRSLGACHLLGSPRHSPSTSPRASITEESWLGARGSRPTSPCNKRKYSLNGRQPSCSPHHSPTPSPHGSPRVSVTEDTWLGNTTQYTSSAIVAAINALTTDSTLDLGDGVPIKSRKTALEHAPSVALKVEPAGEDLGTTPPTSDFPPEEYTFQHLRKGAFCEQYLSVPQASYQWAKPKSLSPTSYMSPSLPALDWQLPSHSGPYELRIEVQPKSHHRAHYETEGSRGAVKASAGGHPIVQLHGYLENEPLTLQLFIGTADDRLLRPHAFYQVHRITGKTVSTTSHEIILSNTKVLEIPLLPENNMRAIIDCAGILKLRNSDIELRKGETDIGRKNTRVRLVFRVHIPQPNGRTLSLQVASNPIECSQRSAQELPLVEKQSTDSYPVIGGKKMVLSGHNFLQDSKVIFVEKAPDGHHVWEMEAKTDRDLCKPNSLVVEIPPFRNQRITSPAQVSFYVCNGKRKRSQYQRFTYLPANGNSVFLTLSSESELRGGFY | – | – | binds | binds | binds | –
6 | SELENOW (retrovirally overexpressed in pre-osteoclasts) (protein, UniProt P63300 1-88, selenocysteine at 13 (SeCys encoded by UGA at codon 13)) MALAVRVVYCGAUGYKPKYLQLKEKLEHEFPGCLDICGEGTPQVTGFFEVTVAGKLVHSKKRGDGYVDTESKFRKLVTAIKAALAQCQ | – | binds | – | binds | binds | –
